No constants are given. Whether binding was seen depends on the method and setting. Binding seen in cells or lysates may run through a third protein. Some results given as binding are weak or reduced against the parent protein; the word gives no strength.
Experiments:
[1] = molecular target: guanylyl cyclase-linked receptor GC-A (NPR-A), endogenous (human (endogenous in HUVEC)) (UniProt P16066); test: co-IP; membrane fractions (HUVEC or HMC) solubilised in CHAPS immunoprecipitation buffer; 300 µg protein with 1 µg anti-GC-A or anti-GC-B antibody or control IgG, 4 h to overnight at 4°C; protein A/G Plus-Agarose; blot with anti-PDI monoclonal antibody (RL90)
[2] = molecular target: guanylyl cyclase-linked receptor GC-B (NPR-B), endogenous (human (endogenous in HMC)) (UniProt P20594); test: as above

Protein sequences, listed by entry. Tags and fused reporters are not part of them. Residues count along the entry.
UniProt P16066, residues 33-1061: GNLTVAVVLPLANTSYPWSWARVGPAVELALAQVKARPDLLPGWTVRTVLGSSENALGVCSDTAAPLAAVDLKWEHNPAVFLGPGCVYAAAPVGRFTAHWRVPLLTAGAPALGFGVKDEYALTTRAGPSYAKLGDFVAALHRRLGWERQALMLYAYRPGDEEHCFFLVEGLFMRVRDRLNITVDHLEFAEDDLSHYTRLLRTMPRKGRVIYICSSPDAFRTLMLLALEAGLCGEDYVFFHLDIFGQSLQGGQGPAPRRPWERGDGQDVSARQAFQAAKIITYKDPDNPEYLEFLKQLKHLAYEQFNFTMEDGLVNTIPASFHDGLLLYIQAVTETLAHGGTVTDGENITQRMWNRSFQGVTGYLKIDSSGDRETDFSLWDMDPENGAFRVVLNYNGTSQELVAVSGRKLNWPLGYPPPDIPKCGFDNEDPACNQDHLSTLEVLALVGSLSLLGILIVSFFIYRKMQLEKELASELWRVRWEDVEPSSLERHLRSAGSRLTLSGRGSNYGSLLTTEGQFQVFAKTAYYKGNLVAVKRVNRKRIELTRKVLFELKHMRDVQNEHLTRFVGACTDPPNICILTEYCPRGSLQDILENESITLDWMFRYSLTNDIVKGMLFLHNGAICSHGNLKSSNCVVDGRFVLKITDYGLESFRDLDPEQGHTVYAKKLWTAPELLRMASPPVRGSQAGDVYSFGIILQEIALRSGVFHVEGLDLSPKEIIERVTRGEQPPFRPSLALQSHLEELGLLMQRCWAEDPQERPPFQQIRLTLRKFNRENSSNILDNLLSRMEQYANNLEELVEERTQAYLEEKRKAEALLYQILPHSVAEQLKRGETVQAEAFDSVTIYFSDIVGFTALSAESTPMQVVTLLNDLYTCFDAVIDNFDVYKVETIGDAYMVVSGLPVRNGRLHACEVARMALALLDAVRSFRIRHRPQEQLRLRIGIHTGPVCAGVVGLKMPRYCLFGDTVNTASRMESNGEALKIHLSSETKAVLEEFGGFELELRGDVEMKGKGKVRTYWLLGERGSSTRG
UniProt P20594, residues 23-1047: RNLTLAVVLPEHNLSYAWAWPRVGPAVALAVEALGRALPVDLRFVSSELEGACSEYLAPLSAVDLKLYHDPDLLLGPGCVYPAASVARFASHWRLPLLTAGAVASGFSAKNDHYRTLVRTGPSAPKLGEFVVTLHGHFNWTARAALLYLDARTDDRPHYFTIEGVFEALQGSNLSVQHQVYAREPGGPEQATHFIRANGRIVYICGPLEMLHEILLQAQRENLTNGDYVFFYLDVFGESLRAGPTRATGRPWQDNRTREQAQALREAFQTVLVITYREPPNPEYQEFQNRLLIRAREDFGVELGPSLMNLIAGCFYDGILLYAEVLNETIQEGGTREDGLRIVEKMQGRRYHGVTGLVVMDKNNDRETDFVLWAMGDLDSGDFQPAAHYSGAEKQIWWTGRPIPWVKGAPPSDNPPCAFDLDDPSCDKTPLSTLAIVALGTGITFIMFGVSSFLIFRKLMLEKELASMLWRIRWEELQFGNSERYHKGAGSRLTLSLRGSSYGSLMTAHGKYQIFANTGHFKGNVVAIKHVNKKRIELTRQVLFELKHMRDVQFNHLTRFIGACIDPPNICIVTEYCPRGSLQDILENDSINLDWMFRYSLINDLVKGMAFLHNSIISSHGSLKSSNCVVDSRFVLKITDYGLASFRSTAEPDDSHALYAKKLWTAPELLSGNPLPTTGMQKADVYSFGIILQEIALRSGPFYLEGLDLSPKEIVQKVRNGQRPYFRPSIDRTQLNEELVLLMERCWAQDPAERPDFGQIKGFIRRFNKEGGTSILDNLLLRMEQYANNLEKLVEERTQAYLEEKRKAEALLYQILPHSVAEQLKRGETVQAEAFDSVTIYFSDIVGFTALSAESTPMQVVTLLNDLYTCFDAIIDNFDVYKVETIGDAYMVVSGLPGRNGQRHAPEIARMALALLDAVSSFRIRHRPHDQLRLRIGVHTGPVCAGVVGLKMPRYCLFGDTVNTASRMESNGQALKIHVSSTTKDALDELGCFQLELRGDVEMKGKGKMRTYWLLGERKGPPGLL
UniProt P07237, residues 18-508: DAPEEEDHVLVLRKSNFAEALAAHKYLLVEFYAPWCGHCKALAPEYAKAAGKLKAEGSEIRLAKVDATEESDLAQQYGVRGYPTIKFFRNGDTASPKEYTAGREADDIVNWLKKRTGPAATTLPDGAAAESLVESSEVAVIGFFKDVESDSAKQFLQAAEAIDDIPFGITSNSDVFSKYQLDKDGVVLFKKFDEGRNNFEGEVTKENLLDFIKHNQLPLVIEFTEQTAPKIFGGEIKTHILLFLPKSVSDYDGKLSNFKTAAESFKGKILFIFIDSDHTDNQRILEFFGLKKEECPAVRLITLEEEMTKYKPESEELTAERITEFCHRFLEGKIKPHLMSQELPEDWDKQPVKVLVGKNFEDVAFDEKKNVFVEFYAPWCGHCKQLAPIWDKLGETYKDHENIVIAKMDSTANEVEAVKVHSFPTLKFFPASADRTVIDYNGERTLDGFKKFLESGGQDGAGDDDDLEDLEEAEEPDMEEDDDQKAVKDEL

- binding [1]: binds
- binding [2]: binds
Substance: membrane bound protein disulfide isomerase (PDI), endogenous (from UniProt P07237 18-508) (enzyme)

Source: paper PMC4242536, “Cell Surface Protein Disulfide Isomerase Regulates Natriuretic Peptide Generation of Cyclic Guanosine Monophosphate” (PLoS ONE, 2014)
